Results reported in US20230241259 (published 2023).

Assay: general procedure: Fmoc solid-phase peptide synthesis
Conditions: whole synthesis, analytical RP-HPLC, area under the curve

Row | Substance | final HPLC purity | final HPLC purity (several disulfide bridges, sequence written open)
1 | PraYCQKFLWTCDSERPCCEGLVCRLWCKIN-NH2 | 96% | –
2 | YCQKFLWTCDSERPCCEGLVCRLWCKIN-NH2 | – | 96%
